Where “and” joins values, the source holds several entries; their conditions need not be identical. Equal values may be shown once.
Tests used:
[1] = In-solution digest of CSF, quantitative MS/MS (relative protein composition); design: species or system human; key to Identification status: CSF: *: Identified, but not quantified; —: Not identified in any of the samples; settings: original CSF; for Relative composition of CSF proteins: CSF: no fibrils; for Identification status: CSF: symbol cells
[2] = In-solution digest of plasma, quantitative MS/MS (relative protein composition); design: species or system human; settings: original plasma, no fibrils

Substance	Relative composition of CSF proteins: CSF [1]	Relative composition of plasma proteins: Plasma [2]	Identification status: CSF [1]
Apolipoprotein A-I: plasma/CSF protein bound to fibrils	0.4 ± 0.1 % of total protein	1.9 ± 0.1 % of total protein	
Apolipoprotein A-II: plasma/CSF protein bound to fibrils	0.0 ± 0.0 % of total protein	0.2 ± 0.0 % of total protein	
Apolipoprotein B-100: plasma protein bound to fibrils		0.2 ± 0.0 % of total protein	
Apolipoprotein C-I: plasma protein bound to fibrils (TPDVSSALDKLKEFGNTLEDKARELISRIKQSELSAKMREWFSETFQKVKEKLKIDS; UniProt P02654 27-83, looked up)		0.0 ± 0.0 % of total protein	
Apolipoprotein C-III: plasma protein bound to fibrils		0.1 ± 0.1 % of total protein	
Apolipoprotein D: plasma/CSF protein bound to fibrils	0.3 ± 0.0 % of total protein	0.0 ± 0.0 % of total protein	
Clusterin: plasma/CSF protein bound to fibrils	0.5 ± 0.0 % of total protein	0.0 ± 0.0 % of total protein	
Complement C1s subcomponent: plasma/CSF protein bound to fibrils		0.0 ± 0.0 % of total protein	*
Complement C3: plasma/CSF protein bound to fibrils	0.1 ± 0.0 % of total protein	0.4 ± 0.0 % of total protein	
Dickkopf-related protein 3: CSF protein bound to fibrils	0.3 ± 0.0 % of total protein		
Fibrinogen β chain: plasma protein bound to fibrils		1.3 ± 0.1 % of total protein	
Fibrinogen γ chain: plasma protein bound to fibrils		0.6 ± 0.0 % of total protein	
Fibronectin		0.0 ± 0.0 % of total protein	*
Gelsolin	0.4 ± 0.0 % of total protein		
Ig γ-1 chain C region: plasma/CSF protein bound to fibrils	8.5 ± 0.2 % of total protein	6.7 ± 0.2 % of total protein	
Ig κ chain C region: CSF protein bound to fibrils	1.0 ± 0.7 % of total protein		
Transthyretin			*
Vitamin K-dependent protein S: plasma protein bound to fibrils		0.0 ± 0.0 % of total protein	
Vitronectin: plasma/CSF protein bound to fibrils	below the detection limit	0.2 % of total protein and 0.2 ± 0.0 % of total protein	*
α1-antitrypsin: plasma/CSF protein bound to fibrils	0.7 ± 0.0 % of total protein	1.6 ± 0.1 % of total protein	

Reference: article PMC6405930, “Conservation of the Amyloid Interactome Across Diverse Fibrillar Structures” (Scientific Reports, 2019)
